According to the supplement of paper PMC3334620:
Whole data set: some 33,000 sequences, median “E-score (-0.5 to 0.5)” near -0.0014, cut for the highest 2% near 0.25. Some of the results follow.

molecular target: T1, Cad1 (UniProt P24813); experiment: PBM E-score (8-mer binding enrichment) (E-score (-0.5 to 0.5)); higher = stronger / more preferred TF binding; conditions: protein concentration: 100 nM; construct: GST-full length
T1 sequence: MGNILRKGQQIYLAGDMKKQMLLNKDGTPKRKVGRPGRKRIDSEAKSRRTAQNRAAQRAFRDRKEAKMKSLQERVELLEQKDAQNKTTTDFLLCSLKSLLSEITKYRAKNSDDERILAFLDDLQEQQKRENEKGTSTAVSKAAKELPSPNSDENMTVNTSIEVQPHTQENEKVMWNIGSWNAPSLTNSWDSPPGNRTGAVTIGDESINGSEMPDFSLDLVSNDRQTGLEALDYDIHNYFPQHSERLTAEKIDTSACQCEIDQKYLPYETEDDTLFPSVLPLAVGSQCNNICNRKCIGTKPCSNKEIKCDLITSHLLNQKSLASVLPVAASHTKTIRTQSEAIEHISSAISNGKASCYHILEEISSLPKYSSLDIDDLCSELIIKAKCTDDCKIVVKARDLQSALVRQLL
Summary of the method: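 For each ungapped eight-base word taken together with its reverse complement, the Universal PBM Analysis Suite assigned an E-score. Binding data came from GST-tagged yeast transcription factors, applied at about 100-200 nM, on universal all-10-mer Agilent arrays made double-stranded by primer extension. Fluorescent anti-GST marked bound protein, and scans were normalised with masliner.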

Point of comparison: TCCACCGA, “PBM E-score” value -0.0875. Against it:
- ATCAGACG — higher, 0.0655
- ACTGCGGG — higher, -0.0136
- CCCAATAA — higher, -0.0013
- GCGTTGAC — higher, 0.112
- ACGAGGGG — lower, -0.358
- TGGAGCAA — higher, 0.0665
- AGAATAGC — higher, 0.159
- ATCCTCGG — higher, 0.122
- AGTCGTAC — lower, -0.228
- CCCCTCGA — lower, -0.113
- CAATGGGC — lower, -0.139
- CCCAGGTA — lower, -0.227
- AGAGAGTA — lower, -0.125
- TCTGGAAA — higher, 0.00954
- GCTTATAC — higher, 0.0132
- AAGGGATG — lower, -0.161
- CGCTGCTA — lower, -0.11
- ACGTCCAA — higher, -0.0166
- GTTGGTAA — higher, 0.19
- GAGGCAAC — higher, 0.0448
- ACGATTCG — higher, 0.111
- GGCTTAAC — higher, 0.0615
- ATGAGCGG — higher, -0.0151
- CGTGGAGA — higher, -0.0377
- GATCTCAC — higher, -0.0178
- CCGACTAA — higher, 0.0547
- TCTCGTCA — higher, -0.00087
- ATCTATGC — higher, 0.0253
- AAGATCAA — higher, -0.0288
- GACACTAA — higher, 0.0765
- CTGCATGC — higher, 0.105
- AGGGTCTC — lower, -0.138
- CTCCGCGC — lower, -0.0989
- AATAGCCA — higher, 0.0741
- GTTGCAAA — higher, 0.187
- AATTAATC — higher, 0.227
- AGTGCCTC — lower, -0.212
- AAACGCAC — higher, 0.0177
- GAGAACTC — lower, -0.157
- AACAGCCC — higher, -0.00726
- ATCGTACG — higher, 0.121
- CGCGATAG — higher, 0.112
- CAGACGTA — higher, 0.0446
- GACCAAGA — higher, -0.0292
- TTCACAAA — higher, 0.085
- CAGGGATA — higher, -0.0646
- CGCACGTA — higher, -0.0721
- ACGCCCCC — lower, -0.407
- GCTCATCC — higher, -0.0355
- CCCAGCTA — lower, -0.16
- AAACCGCC — higher, -0.0149
- GAATATTA — higher, 0.227
- GGGCGTAC — lower, -0.0904
- TTACCTAA — higher, 0.334
- GTTGAAGA — higher, 0.0205
- ACCATTTA — higher, 0.0626
- CTGCGGTA — higher, 0.0345
- CCAATGCG — higher, -0.0336
- ACCATAAG — lower, -0.183
- ATATCTGA — higher, 0.124
- AGACGACA — higher, -0.0566
- CATTCCCA — higher, -0.028
- ATGCCGCA — higher, 0.0493
- ACCTGGAA — higher, 0.187
- GAGATTGA — higher, 0.00123
- GAAGAGGA — lower, -0.286
- ACTCTTCT — lower, -0.227
- CTAGCTCC — lower, -0.159
- AGGTCCGA — higher, 0.127
- AACAATGA — higher, 0.13
- CCCTCCCC — higher, -0.00723
- ATTCTAAG — higher, 0.0377
- AATGTCTC — higher, -0.0702
- CCACCCCG — lower, -0.119
- CCTCAAAC — lower, -0.128
- ACCGCTGG — lower, -0.213
- CGCCCAAC — higher, 0.0447
- CAATGCGA — higher, -0.00381
- AGGGACAG — lower, -0.163
- TCTCAACA — higher, 0.0862
- GAACTCGC — higher, 0.228
- AGAGTAAT — higher, 0.104
- TCATTGCA — higher, 0.0456
- AATTAGCG — higher, 0.207
- AGAACGTA — higher, 0.00725
